This note sets out measurements from paper PMC4330348.

Protein sequences, listed by entry. Tags and fused reporters are not part of them.
UniProt Q61687: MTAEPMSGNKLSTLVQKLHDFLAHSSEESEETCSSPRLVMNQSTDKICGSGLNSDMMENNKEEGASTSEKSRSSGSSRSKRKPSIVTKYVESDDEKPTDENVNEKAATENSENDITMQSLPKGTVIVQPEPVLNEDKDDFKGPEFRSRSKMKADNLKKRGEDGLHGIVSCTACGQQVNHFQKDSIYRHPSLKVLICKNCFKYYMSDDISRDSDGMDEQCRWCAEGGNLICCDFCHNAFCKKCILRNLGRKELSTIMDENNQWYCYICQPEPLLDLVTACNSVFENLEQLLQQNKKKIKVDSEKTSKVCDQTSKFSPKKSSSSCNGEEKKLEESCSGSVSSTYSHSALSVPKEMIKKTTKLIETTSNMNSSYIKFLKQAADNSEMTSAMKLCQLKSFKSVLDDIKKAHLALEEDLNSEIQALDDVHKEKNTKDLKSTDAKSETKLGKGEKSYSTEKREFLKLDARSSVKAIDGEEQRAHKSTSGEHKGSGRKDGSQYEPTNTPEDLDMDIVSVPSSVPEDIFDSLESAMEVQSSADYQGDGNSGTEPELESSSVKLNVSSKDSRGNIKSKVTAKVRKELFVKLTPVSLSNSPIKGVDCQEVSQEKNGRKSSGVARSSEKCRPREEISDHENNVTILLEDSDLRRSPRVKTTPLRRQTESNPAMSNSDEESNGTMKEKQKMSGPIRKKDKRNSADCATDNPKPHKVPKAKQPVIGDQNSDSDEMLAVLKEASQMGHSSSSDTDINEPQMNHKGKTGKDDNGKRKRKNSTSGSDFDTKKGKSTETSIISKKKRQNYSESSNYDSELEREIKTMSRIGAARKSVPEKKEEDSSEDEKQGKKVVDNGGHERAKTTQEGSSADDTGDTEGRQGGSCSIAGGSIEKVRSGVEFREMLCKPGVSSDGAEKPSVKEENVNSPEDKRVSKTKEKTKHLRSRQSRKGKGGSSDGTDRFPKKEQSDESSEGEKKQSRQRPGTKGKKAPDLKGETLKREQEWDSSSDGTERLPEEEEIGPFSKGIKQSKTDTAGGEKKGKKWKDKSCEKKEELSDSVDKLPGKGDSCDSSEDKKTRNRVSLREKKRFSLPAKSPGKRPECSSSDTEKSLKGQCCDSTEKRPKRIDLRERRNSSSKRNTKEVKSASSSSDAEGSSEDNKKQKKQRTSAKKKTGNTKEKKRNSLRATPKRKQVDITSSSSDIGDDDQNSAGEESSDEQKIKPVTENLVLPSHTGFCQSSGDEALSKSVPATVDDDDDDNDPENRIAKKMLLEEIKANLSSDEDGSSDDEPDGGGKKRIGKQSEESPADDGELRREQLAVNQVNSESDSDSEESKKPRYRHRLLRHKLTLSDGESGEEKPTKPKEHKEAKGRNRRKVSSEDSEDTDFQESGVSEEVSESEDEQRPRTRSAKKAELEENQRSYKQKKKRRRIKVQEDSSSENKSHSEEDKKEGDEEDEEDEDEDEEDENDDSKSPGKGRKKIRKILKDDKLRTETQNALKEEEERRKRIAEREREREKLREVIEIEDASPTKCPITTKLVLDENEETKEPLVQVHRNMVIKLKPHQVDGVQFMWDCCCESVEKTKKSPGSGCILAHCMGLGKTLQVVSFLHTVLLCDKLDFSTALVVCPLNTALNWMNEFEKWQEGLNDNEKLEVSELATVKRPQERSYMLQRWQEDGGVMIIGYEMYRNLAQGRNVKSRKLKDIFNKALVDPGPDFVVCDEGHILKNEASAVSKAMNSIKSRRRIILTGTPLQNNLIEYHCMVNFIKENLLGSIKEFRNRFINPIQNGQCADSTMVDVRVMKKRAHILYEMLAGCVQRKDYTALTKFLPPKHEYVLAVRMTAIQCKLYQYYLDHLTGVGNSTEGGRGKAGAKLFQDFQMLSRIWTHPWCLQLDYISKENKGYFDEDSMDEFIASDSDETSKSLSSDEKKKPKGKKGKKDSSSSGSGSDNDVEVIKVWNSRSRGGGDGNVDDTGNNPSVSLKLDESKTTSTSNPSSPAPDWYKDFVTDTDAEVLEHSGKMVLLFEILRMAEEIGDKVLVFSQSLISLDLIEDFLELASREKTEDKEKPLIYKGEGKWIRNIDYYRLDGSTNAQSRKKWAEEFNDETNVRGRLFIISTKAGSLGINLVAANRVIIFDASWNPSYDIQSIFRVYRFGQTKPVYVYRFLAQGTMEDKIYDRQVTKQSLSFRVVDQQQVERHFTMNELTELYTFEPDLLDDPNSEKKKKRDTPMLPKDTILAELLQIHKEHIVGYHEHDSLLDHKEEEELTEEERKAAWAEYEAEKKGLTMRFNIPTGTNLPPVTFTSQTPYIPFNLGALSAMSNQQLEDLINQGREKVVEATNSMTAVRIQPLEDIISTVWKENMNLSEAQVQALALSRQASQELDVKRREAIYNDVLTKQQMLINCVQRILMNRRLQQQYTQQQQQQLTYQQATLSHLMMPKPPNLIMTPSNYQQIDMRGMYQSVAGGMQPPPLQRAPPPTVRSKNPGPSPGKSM
UniProt Q08943: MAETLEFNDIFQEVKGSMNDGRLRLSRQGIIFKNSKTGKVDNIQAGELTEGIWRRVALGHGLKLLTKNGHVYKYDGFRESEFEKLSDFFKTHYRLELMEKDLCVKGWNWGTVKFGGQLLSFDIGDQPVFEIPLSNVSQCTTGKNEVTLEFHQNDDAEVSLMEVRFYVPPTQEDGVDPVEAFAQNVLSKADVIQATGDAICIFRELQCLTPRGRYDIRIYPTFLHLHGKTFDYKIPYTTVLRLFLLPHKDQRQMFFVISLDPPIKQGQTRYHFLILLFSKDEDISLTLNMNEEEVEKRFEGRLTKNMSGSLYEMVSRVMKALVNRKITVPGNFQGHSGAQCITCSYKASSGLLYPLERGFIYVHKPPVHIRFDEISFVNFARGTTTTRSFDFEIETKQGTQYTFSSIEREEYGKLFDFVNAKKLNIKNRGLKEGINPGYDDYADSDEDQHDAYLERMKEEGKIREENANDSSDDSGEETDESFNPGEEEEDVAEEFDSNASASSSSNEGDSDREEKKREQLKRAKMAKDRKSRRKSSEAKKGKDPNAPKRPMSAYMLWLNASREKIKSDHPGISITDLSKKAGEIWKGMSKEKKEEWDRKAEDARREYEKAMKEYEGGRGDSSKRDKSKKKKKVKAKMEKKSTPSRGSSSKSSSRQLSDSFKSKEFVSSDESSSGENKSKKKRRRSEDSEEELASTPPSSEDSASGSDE

The target in this assay is Atrx (mouse (endogenous in MPC11)) (UniProt Q61687). The assay is described as follows: affinity purification with mass spectrometry; immunoprecipitation of the endogenous bait with 5 μg antibody on protein G Dynabeads, 4 h, 4°C, 150 mM NaCl, 0.2% Triton X-100 washes; heavy-labelled MPC11 nuclear extracts against light isotype-control IP; SILAC H/L by mass spectrometry.

Results are given in words; binding and its absence hold for the method and conditions named. In cells and extracts the contact can be indirect. These calls come from enrichment with a bait or labelling near it, and not all partners need be listed.

Consider Ssrp1 (from UniProt Q08943 1-708), for which the binding result is “binds”.
